This is one part of the list.
Assays:
Assay in all cases: log2 fold change, soluble protein after heating vs DMSO (PISA); higher = thermal stabilisation; K562 lysate, 10 uM; active = over 0.2 and 3.5 SD of the protein, either way, in both replicates (recomputed)
alvocidib = compound: CN1CC[C@H](c2c(O)cc(O)c3c(=O)cc(-c4ccccc4Cl)oc23)[C@H](O)C1 [alvocidib]
In short: (§1)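 Values give the log-two fold change in thermal stability against solvent controls, from duplicates. Crude K562 extract at 1 mg/mL protein, made by dounce homogenisation in PBS pH 7.4 with 1 mM MgCl2, was treated with 10 μM compound for 30 min. After 3 min heating across 48°C-58°C, aliquots were pooled, adjusted to 0.5% NP-40 at 4°C and centrifuged at 21,000xg for 90 min. The supernatant was measured by TMTpro 16plex LC-MS/MS with channel sums equalised.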

The chains behind the UniProt entries cited, without tags or fusion partners. Where a name states a change or a piece, a line headed by the entry shows the natural chain unless it says otherwise.
UniProt Q9ULJ8: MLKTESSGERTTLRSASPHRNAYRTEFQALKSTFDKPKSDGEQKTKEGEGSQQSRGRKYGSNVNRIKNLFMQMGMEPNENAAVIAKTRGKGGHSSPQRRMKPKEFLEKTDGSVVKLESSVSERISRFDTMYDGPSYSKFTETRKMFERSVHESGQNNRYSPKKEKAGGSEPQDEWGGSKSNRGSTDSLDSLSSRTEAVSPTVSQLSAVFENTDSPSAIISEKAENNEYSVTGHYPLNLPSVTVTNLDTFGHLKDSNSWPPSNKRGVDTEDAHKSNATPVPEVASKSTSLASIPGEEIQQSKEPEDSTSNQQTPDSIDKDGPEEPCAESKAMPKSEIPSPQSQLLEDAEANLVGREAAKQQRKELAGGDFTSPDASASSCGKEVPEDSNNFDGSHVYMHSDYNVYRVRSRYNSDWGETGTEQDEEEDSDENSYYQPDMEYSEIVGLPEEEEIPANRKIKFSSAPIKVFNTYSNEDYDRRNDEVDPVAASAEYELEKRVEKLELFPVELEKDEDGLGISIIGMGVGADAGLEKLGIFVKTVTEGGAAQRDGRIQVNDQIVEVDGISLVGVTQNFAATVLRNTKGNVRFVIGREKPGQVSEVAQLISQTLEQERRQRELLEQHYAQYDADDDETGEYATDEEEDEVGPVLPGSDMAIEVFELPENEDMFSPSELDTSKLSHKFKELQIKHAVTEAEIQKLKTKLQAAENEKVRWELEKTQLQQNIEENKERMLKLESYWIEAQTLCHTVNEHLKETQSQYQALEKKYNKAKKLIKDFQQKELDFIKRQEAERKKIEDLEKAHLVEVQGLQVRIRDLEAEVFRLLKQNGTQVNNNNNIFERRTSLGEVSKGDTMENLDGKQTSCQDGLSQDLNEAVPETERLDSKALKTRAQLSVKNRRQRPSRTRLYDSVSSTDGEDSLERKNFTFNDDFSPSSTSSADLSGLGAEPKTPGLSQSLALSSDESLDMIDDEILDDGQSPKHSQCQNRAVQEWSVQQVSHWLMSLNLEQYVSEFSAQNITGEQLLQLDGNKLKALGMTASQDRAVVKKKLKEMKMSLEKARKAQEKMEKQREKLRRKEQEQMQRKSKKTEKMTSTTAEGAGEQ
UniProt P60510: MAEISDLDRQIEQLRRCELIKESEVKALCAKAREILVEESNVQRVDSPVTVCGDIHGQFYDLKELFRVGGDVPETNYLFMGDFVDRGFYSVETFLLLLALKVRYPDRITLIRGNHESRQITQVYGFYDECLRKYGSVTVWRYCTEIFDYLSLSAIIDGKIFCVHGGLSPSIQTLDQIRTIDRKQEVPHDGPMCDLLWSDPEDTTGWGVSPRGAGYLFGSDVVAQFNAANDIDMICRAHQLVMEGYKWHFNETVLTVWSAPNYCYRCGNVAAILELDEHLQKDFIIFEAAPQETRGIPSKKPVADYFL
UniProt P30153, whole entry, looked up: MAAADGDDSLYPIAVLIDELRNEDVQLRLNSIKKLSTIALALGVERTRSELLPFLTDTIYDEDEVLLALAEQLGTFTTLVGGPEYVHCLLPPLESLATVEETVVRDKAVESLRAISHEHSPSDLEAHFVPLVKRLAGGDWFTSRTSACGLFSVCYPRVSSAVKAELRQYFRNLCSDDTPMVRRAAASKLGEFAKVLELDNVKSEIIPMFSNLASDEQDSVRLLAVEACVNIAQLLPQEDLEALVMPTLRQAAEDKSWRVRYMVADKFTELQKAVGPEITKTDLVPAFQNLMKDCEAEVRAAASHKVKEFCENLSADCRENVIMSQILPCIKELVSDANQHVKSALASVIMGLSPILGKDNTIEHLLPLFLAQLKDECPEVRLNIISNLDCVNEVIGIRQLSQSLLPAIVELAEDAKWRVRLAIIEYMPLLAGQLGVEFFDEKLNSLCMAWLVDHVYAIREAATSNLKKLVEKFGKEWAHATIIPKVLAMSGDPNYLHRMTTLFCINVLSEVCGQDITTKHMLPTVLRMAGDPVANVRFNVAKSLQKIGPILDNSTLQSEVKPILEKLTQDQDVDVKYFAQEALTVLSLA
UniProt Q8TF05: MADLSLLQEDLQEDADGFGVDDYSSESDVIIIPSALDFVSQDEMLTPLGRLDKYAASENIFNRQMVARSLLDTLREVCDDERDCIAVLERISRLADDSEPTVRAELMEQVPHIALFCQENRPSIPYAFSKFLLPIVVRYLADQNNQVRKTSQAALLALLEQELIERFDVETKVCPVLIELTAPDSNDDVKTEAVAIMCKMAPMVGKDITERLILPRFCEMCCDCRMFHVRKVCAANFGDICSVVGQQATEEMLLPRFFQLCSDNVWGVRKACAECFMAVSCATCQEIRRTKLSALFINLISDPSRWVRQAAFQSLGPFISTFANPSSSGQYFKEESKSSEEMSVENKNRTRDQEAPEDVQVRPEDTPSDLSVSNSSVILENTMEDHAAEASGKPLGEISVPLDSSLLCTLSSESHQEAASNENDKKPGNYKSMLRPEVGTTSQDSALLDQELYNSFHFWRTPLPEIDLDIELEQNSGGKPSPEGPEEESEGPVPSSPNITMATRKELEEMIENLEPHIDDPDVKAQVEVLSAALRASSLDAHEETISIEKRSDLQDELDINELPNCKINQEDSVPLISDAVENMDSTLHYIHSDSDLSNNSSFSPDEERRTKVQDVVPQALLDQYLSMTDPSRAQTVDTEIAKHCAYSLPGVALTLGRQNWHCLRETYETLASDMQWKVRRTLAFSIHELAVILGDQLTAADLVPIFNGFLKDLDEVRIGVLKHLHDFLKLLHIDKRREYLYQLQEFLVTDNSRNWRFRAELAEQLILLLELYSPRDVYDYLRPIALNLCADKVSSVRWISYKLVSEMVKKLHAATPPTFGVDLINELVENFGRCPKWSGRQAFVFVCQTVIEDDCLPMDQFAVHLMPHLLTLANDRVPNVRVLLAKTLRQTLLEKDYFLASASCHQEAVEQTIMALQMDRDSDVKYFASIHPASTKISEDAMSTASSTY
UniProt Q96SB3: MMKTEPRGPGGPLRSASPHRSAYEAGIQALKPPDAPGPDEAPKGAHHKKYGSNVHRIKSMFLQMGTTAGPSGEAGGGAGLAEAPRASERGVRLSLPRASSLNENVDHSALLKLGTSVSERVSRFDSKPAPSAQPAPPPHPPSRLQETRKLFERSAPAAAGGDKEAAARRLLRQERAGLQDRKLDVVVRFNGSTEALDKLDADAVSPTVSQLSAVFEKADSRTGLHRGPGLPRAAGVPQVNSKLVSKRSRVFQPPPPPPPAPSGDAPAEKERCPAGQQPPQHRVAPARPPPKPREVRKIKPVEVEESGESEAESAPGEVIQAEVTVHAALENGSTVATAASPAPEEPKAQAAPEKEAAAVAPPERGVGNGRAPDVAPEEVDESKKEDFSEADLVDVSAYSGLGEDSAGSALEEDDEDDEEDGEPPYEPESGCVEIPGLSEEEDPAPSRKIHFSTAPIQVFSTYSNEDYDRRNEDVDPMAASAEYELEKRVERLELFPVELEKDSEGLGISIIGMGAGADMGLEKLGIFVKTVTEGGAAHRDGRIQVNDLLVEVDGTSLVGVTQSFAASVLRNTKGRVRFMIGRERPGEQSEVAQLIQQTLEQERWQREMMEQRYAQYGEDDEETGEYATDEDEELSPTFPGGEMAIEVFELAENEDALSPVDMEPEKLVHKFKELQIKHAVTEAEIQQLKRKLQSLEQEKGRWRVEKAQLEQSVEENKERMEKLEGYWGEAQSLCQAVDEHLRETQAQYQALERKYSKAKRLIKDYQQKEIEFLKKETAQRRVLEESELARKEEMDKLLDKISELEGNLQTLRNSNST
UniProt P41236: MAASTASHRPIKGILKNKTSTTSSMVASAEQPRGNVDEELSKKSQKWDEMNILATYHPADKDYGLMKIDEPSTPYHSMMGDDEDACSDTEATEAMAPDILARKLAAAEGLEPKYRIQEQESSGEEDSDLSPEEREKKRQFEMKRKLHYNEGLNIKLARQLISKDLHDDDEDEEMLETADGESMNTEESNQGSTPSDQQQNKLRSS
UniProt Q6IN85: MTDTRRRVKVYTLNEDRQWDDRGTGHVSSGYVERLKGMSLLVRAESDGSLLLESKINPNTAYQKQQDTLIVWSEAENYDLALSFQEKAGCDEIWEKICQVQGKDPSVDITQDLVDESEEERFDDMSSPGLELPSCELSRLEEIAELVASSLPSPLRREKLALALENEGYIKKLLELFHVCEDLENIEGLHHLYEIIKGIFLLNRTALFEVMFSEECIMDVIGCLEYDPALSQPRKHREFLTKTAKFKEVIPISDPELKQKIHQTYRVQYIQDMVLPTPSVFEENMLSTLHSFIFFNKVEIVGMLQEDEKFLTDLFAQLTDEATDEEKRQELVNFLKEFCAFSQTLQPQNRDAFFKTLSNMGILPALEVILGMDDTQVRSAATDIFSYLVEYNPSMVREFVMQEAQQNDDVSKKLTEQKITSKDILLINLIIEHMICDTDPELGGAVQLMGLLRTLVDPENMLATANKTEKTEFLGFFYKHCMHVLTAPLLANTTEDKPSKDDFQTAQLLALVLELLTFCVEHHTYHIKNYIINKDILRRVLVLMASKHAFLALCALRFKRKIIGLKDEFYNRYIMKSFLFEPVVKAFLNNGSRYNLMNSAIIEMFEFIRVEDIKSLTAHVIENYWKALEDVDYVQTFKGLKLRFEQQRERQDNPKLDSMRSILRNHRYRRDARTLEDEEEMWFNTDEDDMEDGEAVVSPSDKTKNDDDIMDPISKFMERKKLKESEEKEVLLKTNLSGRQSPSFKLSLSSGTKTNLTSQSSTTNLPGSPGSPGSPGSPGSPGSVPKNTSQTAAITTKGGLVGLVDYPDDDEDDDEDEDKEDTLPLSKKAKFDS
UniProt O00743: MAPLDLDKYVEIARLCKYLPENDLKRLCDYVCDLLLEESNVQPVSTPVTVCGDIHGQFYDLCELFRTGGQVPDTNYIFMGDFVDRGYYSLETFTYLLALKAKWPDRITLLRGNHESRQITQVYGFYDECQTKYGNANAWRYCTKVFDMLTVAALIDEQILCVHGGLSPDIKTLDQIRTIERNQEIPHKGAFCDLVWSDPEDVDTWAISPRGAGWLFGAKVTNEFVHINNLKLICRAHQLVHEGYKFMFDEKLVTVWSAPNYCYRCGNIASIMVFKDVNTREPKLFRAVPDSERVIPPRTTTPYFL
UniProt Q05655: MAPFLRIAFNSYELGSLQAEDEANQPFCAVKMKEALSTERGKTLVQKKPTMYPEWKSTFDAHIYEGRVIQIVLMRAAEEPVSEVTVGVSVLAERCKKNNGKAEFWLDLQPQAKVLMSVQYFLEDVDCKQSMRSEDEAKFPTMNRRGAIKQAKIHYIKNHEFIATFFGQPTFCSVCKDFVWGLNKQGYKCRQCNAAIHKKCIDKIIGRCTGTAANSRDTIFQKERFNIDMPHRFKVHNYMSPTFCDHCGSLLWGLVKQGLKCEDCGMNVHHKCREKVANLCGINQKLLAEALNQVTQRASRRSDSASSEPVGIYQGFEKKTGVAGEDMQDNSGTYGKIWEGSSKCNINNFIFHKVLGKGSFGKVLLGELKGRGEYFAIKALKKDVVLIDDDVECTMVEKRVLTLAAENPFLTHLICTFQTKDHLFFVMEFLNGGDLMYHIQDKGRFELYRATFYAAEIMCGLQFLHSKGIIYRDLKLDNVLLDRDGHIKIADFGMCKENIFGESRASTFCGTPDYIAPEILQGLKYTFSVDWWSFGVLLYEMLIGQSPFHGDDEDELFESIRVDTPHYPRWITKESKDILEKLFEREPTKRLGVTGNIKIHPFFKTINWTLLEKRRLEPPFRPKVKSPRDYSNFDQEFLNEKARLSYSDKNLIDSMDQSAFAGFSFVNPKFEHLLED
UniProt P62714, whole entry, looked up: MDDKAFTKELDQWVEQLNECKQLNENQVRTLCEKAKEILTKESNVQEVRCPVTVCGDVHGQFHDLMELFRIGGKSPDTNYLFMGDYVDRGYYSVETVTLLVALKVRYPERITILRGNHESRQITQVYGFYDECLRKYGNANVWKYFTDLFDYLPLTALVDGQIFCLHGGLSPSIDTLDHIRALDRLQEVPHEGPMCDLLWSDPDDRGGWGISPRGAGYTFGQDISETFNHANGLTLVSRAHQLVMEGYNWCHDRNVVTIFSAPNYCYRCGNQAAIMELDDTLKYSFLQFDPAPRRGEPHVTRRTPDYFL
UniProt P63098, whole entry, looked up: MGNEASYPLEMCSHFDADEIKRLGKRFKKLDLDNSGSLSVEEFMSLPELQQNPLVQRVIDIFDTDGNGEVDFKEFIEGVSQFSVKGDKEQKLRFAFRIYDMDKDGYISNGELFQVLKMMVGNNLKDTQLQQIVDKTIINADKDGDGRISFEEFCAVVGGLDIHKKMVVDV
UniProt P32119: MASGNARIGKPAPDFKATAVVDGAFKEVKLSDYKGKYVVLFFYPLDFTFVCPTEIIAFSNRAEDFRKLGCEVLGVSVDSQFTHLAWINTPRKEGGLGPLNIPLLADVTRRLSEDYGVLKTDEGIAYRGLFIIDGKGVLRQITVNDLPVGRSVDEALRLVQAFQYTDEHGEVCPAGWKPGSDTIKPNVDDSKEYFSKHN

Tubastatin A = compound: CN1CCc2c(c3ccccc3n2Cc2ccc(C(=O)NO)cc2)C1 [Tubastatin A]
In short: as §1

[1] = compound: CNC(=O)C1=CC=CC=C1NC2=NC(=NC=C2Cl)NC3=C(C=C(C=C3)N4CCOCC4)OC
In short: as §1

defactinib = compound: CNC(=O)c1ccc(Nc2ncc(C(F)(F)F)c(NCc3nccnc3N(C)S(C)(=O)=O)n2)cc1 [defactinib]
In short: as §1

[2] = compound: CNc1nc(-c2ccc3c(N)n[nH]c3c2)cc(N2C[C@@H](C(=O)NC3CCCCC3)CC[C@H]2C)n1
In short: as §1

encorafenib = compound: COC(=O)N[C@@H](C)CNc1nccc(-c2cn(C(C)C)nc2-c2cc(Cl)cc(NS(C)(=O)=O)c2F)n1 [encorafenib]
In short: as §1

[3] = compound: COC(=O)[C@H](CCSC)NC(=O)C1=C(C=C(C=C1)NC[C@H](CS)N)C2=CC=CC=C2
In short: as §1

alisertib = compound: COc1cc(Nc2ncc3c(n2)-c2ccc(Cl)cc2C(c2c(F)cccc2OC)=NC3)ccc1C(=O)O [alisertib]
In short: as §1

[4] = compound: COc1cc2nc(-c3cc(F)ccc3O)nc(N[C@@H]3CNC[C@H]3C(C)(C)O)c2cc1OC
In short: as §1

gefitinib = compound: COc1cc2ncnc(Nc3ccc(F)c(Cl)c3)c2cc1OCCCN1CCOCC1 [gefitinib]
In short: as §1

lapatinib = compound: CS(=O)(=O)CCNCc1ccc(-c2ccc3ncnc(Nc4ccc(OCc5cccc(F)c5)c(Cl)c4)c3c2)o1 [lapatinib]
In short: as §1

pictilisib = compound: CS(=O)(=O)N1CCN(Cc2cc3nc(-c4cccc5[nH]ncc45)nc(N4CCOCC4)c3s2)CC1 [pictilisib]
In short: as §1

crizotinib = compound: C[C@@H](Oc1cc(-c2cnn(C3CCNCC3)c2)cnc1N)c1c(Cl)ccc(F)c1Cl [crizotinib]
In short: as §1

[5] = compound: C[C@H](C1=CC=C(C=C1)C(=O)NC2=C3C=CNC3=NC=C2)N
In short: as §1

duvelisib = compound: C[C@H](Nc1ncnc2nc[nH]c12)c1cc2cccc(Cl)c2c(=O)n1-c1ccccc1 [duvelisib]
In short: as §1

gandotinib = compound: Cc1cc(Nc2cc(CN3CCOCC3)c3nc(C)c(Cc4ccc(Cl)cc4F)n3n2)n[nH]1 [gandotinib]
In short: as §1

tozasertib = compound: Cc1cc(Nc2cc(N3CCN(C)CC3)nc(Sc3ccc(NC(=O)C4CC4)cc3)n2)n[nH]1 [tozasertib]
In short: as §1

doramapimod = compound: Cc1ccc(-n2nc(C(C)(C)C)cc2NC(=O)Nc2ccc(OCCN3CCOCC3)c3ccccc23)cc1 [doramapimod]
In short: as §1

bafetinib = compound: Cc1ccc(NC(=O)c2ccc(CN3CC[C@H](N(C)C)C3)c(C(F)(F)F)c2)cc1Nc1nccc(-c2cncnc2)n1 [bafetinib]
In short: as §1

[6] = compound: Cc1cccc(CC(=O)N2CCc3c2ccc(-c2cn(C)c4ncnc(N)c24)c3F)n1
In short: as §1

Measured: log2 fold change

PPP1R9A isoform 3 (UniProt Q9ULJ8)
inactive: alvocidib -0.029 | Tubastatin A 0.059 | [1] 0.029 | defactinib 0.194 | [2] 0.011 | encorafenib -0.049 | [3] 0.09 | alisertib 0.047 | [4] 0.002 | gefitinib 0.051 | lapatinib -0.012 | pictilisib -0.018 | crizotinib 0.016 | [5] -0.049 | duvelisib 0.077 | gandotinib -0.062 | tozasertib -0.164 | doramapimod 0.036 | bafetinib -0.057 | [6] 0.06

PPP4C (UniProt P60510)
inactive: alvocidib 0.021 | Tubastatin A 0.072 | [1] 0.013 | defactinib -0.03 | [2] 0.057 | encorafenib 0.027 | [3] -0.106 | alisertib 0.015 | [4] 0.002 | gefitinib -0.005 | lapatinib -0.024 | pictilisib -0.026 | crizotinib -0.016 | [5] 0.076 | duvelisib -0.03 | gandotinib -0.056 | tozasertib 0.017 | doramapimod 0.045 | bafetinib -0.071 | [6] -0.046

PPP2R1A (UniProt P30153)
inactive: alvocidib 0.019 | Tubastatin A -0.02 | [1] 0.007 | defactinib 0.003 | [2] -0.046 | encorafenib -0.016 | [3] -0.045 | alisertib -0.019 | [4] -0.007 | gefitinib -0.032 | lapatinib -0.032 | pictilisib 0 | crizotinib 0.039 | [5] 0.026 | duvelisib 0 | gandotinib -0.055 | tozasertib 0.001 | doramapimod -0.013 | bafetinib 0.019 | [6] -0.031

PRKRA (UniProt O75569)
inactive: alvocidib 0.024 | Tubastatin A -0.254 | [1] 0.028 | defactinib 0.02 | [2] -0.009 | encorafenib -0.001 | [3] 0.146 | alisertib -0.019 | [4] -0.004 | gefitinib -0.006 | lapatinib 0.01 | pictilisib -0.003 | crizotinib -0.021 | [5] -0.017 | duvelisib 0 | gandotinib -0.094 | tozasertib -0.005 | doramapimod -0.01 | bafetinib -0.003 | [6] 0.032

PPP4R1 (UniProt Q8TF05)
inactive: alvocidib -0.007 | Tubastatin A -0.088 | [1] 0.007 | defactinib 0.007 | [2] -0.021 | encorafenib 0.015 | [3] 0.015 | alisertib 0.002 | [4] 0 | gefitinib 0.019 | lapatinib -0.007 | pictilisib -0.001 | crizotinib -0.037 | [5] 0.001 | duvelisib 0.015 | gandotinib -0.008 | tozasertib -0.005 | doramapimod 0.014 | bafetinib -0.034 | [6] 0.036

Retrieved one by one from the list above (2):
PPP4C (UniProt P60510)
inactive: alvocidib 0.021 | Tubastatin A 0.072 | [1] 0.013 | defactinib -0.03 | [2] 0.057 | encorafenib 0.027 | [3] -0.106 | alisertib 0.015 | [4] 0.002 | gefitinib -0.005 | lapatinib -0.024 | pictilisib -0.026 | crizotinib -0.016 | [5] 0.076 | duvelisib -0.03 | gandotinib -0.056 | tozasertib 0.017 | doramapimod 0.045 | bafetinib -0.071 | [6] -0.046

PPP1R9A isoform 3 (UniProt Q9ULJ8)
inactive: alvocidib -0.029 | Tubastatin A 0.059 | [1] 0.029 | defactinib 0.194 | [2] 0.011 | encorafenib -0.049 | [3] 0.09 | alisertib 0.047 | [4] 0.002 | gefitinib 0.051 | lapatinib -0.012 | pictilisib -0.018 | crizotinib 0.016 | [5] -0.049 | duvelisib 0.077 | gandotinib -0.062 | tozasertib -0.164 | doramapimod 0.036 | bafetinib -0.057 | [6] 0.06

Next part

PPP1R9B (UniProt Q96SB3)
inactive: alvocidib 0.059 | Tubastatin A 0.056 | [1] 0.039 | defactinib 0.018 | [2] 0.021 | encorafenib 0.002 | [3] 0.006 | alisertib 0.025 | [4] -0.01 | gefitinib 0.01 | lapatinib -0.013 | pictilisib -0.08 | crizotinib 0.029 | [5] 0.14 | duvelisib -0.025 | gandotinib -0.089 | tozasertib -0.048 | doramapimod 0.026 | bafetinib 0.002 | [6] -0.098

PPP1R2 (UniProt P41236)
inactive: alvocidib 0.034 | Tubastatin A 0.063 | [1] 0.001 | defactinib -0.032 | [2] -0.05 | encorafenib -0.072 | [3] -0.039 | alisertib -0.036 | [4] 0.003 | gefitinib -0.038 | lapatinib -0.039 | pictilisib 0.03 | crizotinib -0.006 | [5] -0.014 | duvelisib 0.069 | gandotinib 0.044 | tozasertib -0.033 | doramapimod -0.056 | bafetinib 0.015 | [6] -0.058

PPP4R3A (UniProt Q6IN85)
inactive: alvocidib -0.028 | Tubastatin A 0.02 | [1] -0.006 | defactinib 0.002 | [2] -0.005 | encorafenib -0.003 | [3] 0.031 | alisertib 0.007 | [4] -0.014 | gefitinib 0.018 | lapatinib 0.017 | pictilisib -0.032 | crizotinib 0.008 | [5] -0.141 | duvelisib -0.012 | gandotinib 0.025 | tozasertib 0.024 | doramapimod 0.019 | bafetinib -0.04 | [6] 0.068

PPP6C isoform 3 (UniProt O00743)
inactive: alvocidib -0.007 | Tubastatin A -0.015 | [1] -0.005 | defactinib 0.002 | [2] -0.077 | encorafenib -0.001 | [3] -0.104 | alisertib -0.012 | [4] 0.003 | gefitinib -0.006 | lapatinib -0.011 | pictilisib -0.015 | crizotinib 0.019 | [5] -0.05 | duvelisib -0.004 | gandotinib 0.036 | tozasertib 0.006 | doramapimod 0 | bafetinib 0.006 | [6] 0.01

PRKCD (UniProt Q05655)
active: [4] 0.235
inactive: alvocidib -0.082 | Tubastatin A 0.036 | [1] -0.012 | defactinib -0.032 | [2] -0.003 | encorafenib -0.009 | [3] 0.056 | alisertib -0.031 | gefitinib 0.002 | lapatinib -0.143 | pictilisib 0.003 | crizotinib -0.011 | [5] -0.135 | duvelisib 0.024 | gandotinib 0.009 | tozasertib 0.015 | doramapimod 0.005 | bafetinib -0.069 | [6] 0.007

PPP2CB (UniProt P62714)
inactive: alvocidib 0.005 | Tubastatin A -0.001 | [1] 0.025 | defactinib -0.019 | [2] 0.007 | encorafenib 0.001 | [3] -0.124 | alisertib -0.055 | [4] 0.002 | gefitinib -0.004 | lapatinib 0.006 | pictilisib 0.015 | crizotinib 0.01 | [5] -0.031 | duvelisib 0.011 | gandotinib 0.028 | tozasertib -0.024 | doramapimod 0.016 | bafetinib 0.005 | [6] 0.009

PPP3R1 (UniProt P63098)
inactive: alvocidib 0.019 | Tubastatin A -0.006 | [1] 0.021 | defactinib 0.043 | [2] 0.05 | encorafenib 0.009 | [3] -0.062 | alisertib -0.022 | [4] 0.018 | gefitinib 0.024 | lapatinib 0.019 | pictilisib -0.002 | crizotinib -0.003 | [5] 0.006 | duvelisib 0.022 | gandotinib 0.05 | tozasertib 0.012 | doramapimod -0.088 | bafetinib 0.002 | [6] -0.119

PRMT6 (UniProt Q96LA8)
inactive: alvocidib -0.017 | Tubastatin A -0.016 | [1] -0.033 | defactinib -0.019 | [2] -0.125 | encorafenib 0.047 | [3] 0 | alisertib 0.002 | [4] 0 | gefitinib 0.032 | lapatinib 0.04 | pictilisib 0.004 | crizotinib -0.03 | [5] 0.05 | duvelisib 0.016 | gandotinib -0.069 | tozasertib -0.004 | doramapimod 0.003 | bafetinib -0.019 | [6] 0.028

PPP1R7 (UniProt Q15435)
inactive: alvocidib 0.028 | Tubastatin A 0.015 | [1] -0.034 | defactinib -0.008 | [2] -0.092 | encorafenib 0 | [3] 0.007 | alisertib 0.008 | [4] 0 | gefitinib 0.031 | lapatinib -0.005 | pictilisib 0.036 | crizotinib 0.002 | [5] -0.007 | duvelisib 0.021 | gandotinib -0.022 | tozasertib 0.075 | doramapimod 0.02 | bafetinib -0.021 | [6] -0.02

PRDX2 (UniProt P32119)
inactive: alvocidib -0.066 | Tubastatin A 0.051 | [1] -0.019 | defactinib -0.021 | [2] 0.086 | encorafenib -0.008 | [3] -0.014 | alisertib 0.003 | [4] 0.012 | gefitinib 0.004 | lapatinib 0.005 | pictilisib 0.031 | crizotinib 0.031 | [5] -0.095 | duvelisib -0.019 | gandotinib 0.061 | tozasertib 0.018 | doramapimod 0 | bafetinib 0.038 | [6] 0.043
